Source: US20030224992A1, “Transcription factor modulators and uses thereof” (Praecis Pharmaceuticals Inc., priority 2002, published 2003)

Experiments:
[1] = molecular target: T1, Androgen receptor full length (LNCaP nuclear extract) (Homo sapiens) (UniProt P10275); experiment: activity in cells; conditions: decoy at 1, 5 or 20 uM reduced DHT-induced PSA mRNA in electroporated LNCaP cells; protein in an extract
T1 sequence (looked up, limits assumed): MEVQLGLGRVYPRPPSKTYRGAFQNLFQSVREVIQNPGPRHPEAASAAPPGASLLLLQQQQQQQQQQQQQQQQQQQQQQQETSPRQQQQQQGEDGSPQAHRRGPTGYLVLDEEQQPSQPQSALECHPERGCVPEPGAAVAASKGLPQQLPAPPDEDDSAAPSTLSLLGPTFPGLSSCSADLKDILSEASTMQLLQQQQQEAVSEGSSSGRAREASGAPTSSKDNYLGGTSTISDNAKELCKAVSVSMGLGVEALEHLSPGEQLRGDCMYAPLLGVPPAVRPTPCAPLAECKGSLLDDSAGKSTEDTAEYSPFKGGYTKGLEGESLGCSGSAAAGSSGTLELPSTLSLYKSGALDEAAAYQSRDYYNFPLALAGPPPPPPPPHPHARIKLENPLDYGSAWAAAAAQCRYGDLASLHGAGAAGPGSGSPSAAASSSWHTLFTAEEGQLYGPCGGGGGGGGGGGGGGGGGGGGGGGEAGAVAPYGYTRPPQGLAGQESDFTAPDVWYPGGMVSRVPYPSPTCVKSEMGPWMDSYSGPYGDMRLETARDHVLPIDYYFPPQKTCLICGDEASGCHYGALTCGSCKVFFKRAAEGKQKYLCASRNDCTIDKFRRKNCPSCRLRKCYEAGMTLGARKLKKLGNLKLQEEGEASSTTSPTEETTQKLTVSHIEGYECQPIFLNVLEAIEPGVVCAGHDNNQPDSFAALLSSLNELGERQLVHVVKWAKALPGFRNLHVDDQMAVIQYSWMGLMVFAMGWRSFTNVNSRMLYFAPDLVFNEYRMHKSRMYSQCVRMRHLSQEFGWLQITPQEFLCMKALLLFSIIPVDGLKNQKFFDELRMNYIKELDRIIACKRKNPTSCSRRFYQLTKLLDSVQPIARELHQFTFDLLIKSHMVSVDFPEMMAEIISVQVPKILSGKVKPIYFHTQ

[2] = molecular target: T1, Androgen receptor full length (LNCaP nuclear extract) (Homo sapiens); experiment: competition with a labelled probe; conditions: competes with biotin-ARE for native AR, protein in an extract
[3] = molecular target: T1, Androgen receptor full length (LNCaP nuclear extract) (Homo sapiens); experiment: pull-down; conditions: streptavidin bead pulldown, anti-AR western; DHT-treated cells, cold; protein in an extract; label: 5'-biotin on top strand; variant of ARE duplex

AGTCTGGTACAGGGTGTTCTTTTTA (double strand) [ARE duplex]
activity on this sequence [1]: active | binding result ([2]; similar to ARE-MPS): binds

AGTCTGGTACAGGGTGTTCTTTTTA (double strand) [ARE-MPS duplex]
binding result ([2]; membrane permeable peptide Ac-YARAARRAARRGC-NH2 conjugated at 5' of top strand, similar to ARE, variant of ARE duplex): binds

AGTCTGGTACAGGGTGTTCTTTTTA (double strand) [biotin-ARE duplex]
binding result [3]: binds

For some of these results: Results from cells or extracts need not show a direct contact. Tags and fusion partners may be left off the protein sequences shown. For some of these results: Construct, isoform or probe ends are uncertain for at least one entry.
